The values that follow are results of earlier work, collected in US5322698A, “Process for the preparation of a tablet or dragee composition containing a heat-, light- and moisture-sensitive active ingredient having monoclinic crystal structure” (priority 1990, dated 1994).

The conditions of this data set: antiarrhythmic reference drugs; Welling et al. 1985; cited from earlier work.

On to `CCCCc1oc2ccccc2c1C(=O)c1cc(I)c(OCCN(CC)CC)c(I)c1` [aminodarone], for which the absorption entry is “not absorbed”.
